Results deposited as PubChem BioAssay AID1259405 (NCATS, 2018)
Purpose: 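Mouse-designed siRNAs used to find CHO productivity engineering targets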 (primary screen). Cell system: Chinese hamster CHO-K1 ovary cells with stable secreted eGFP expression. Reagent: single siRNA against mouse genes, 0.8 pmol siRNA per well (2 µl of 400 nM stock). Duration: 3 days. Detection: 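Per-well intracellular GFP measured by laser scanning cytometry, plus viability from ATP luminescence, each relative to plate median of non-targeting control wells, in %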. Reading the numbers: GFP, % of control: higher = more GFP per well, higher productivity; viability (ATP), % of control: higher = more viable cells (more ATP). Hit rule: 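Called active when intracellular GFP, relative to negative control, is at or above 120%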.
The deposit covers about 50,000 reagents; shown is a part drawn at random. Of all reagents, about 4,000 (8%) got an active call. 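Mouse siRNA library applied to hamster cells; one well for each siRNA.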 Reagents against one gene are numbered here.

Sncb (synuclein, beta) #1 showed GFP, % of control 58.2; viability (ATP), % of control 39.9; inactive.
Silencing of Sncb (synuclein, beta) #2 resulted in: GFP, % of control 116; viability (ATP), % of control 74.1; inactive.
Silencing of Sncb (synuclein, beta) #3 resulted in: GFP, % of control 103; viability (ATP), % of control 66.8; inactive.
Silencing of Kcnj8 (potassium inwardly-rectifying channel, subfamily J, member 8) #1 gave: GFP, % of control 88; viability (ATP), % of control 94.6; inactive.
Kcnj8 (potassium inwardly-rectifying channel, subfamily J, member 8) #2 scored GFP, % of control 116; viability (ATP), % of control 89.1; inactive.
Kcnj8 (potassium inwardly-rectifying channel, subfamily J, member 8) #3 gave GFP, % of control 85.9; viability (ATP), % of control 90.2; inactive.
After knock-down of BC048679 (cDNA sequence BC048679) #1, the record shows GFP, % of control 67.8; viability (ATP), % of control 78.5; inactive.
After knock-down of BC048679 (cDNA sequence BC048679) #2 the results were GFP, % of control 80.4; viability (ATP), % of control 76.2; inactive.
Against BC048679 (cDNA sequence BC048679) #3, the values are GFP, % of control 108; viability (ATP), % of control 111; inactive.
After knock-down of Mgme1 (mitochondrial genome maintenance exonuclease 1) #1, the screen gave GFP, % of control 61.4; viability (ATP), % of control 68.1; inactive.
Silencing of Mgme1 (mitochondrial genome maintenance exonuclease 1) #2 came out at: GFP, % of control 82; viability (ATP), % of control 76.9; inactive.
Against Mgme1 (mitochondrial genome maintenance exonuclease 1) #3, the entry reads GFP, % of control 132; viability (ATP), % of control 131; active.
After knock-down of Tceal5 (transcription elongation factor A (SII)-like 5) #1 the results were GFP, % of control 78.9; viability (ATP), % of control 65.7; inactive.
Knock-down of Tceal5 (transcription elongation factor A (SII)-like 5) #2 came out at: GFP, % of control 95; viability (ATP), % of control 92.9; inactive.
Depletion of Tceal5 (transcription elongation factor A (SII)-like 5) #3 came out at: GFP, % of control 73.1; viability (ATP), % of control 80.6; inactive.
After knock-down of Or2m13 (olfactory receptor family 2 subfamily M member 13) #1 the results were GFP, % of control 92.7; viability (ATP), % of control 104; inactive.
Or2m13 (olfactory receptor family 2 subfamily M member 13) #2 showed GFP, % of control 74.8; viability (ATP), % of control 67.7; inactive.
Depletion of Or2m13 (olfactory receptor family 2 subfamily M member 13) #3 gave: GFP, % of control 71; viability (ATP), % of control 98.4; inactive.

A portion taken from the entries so far, as a working copy:
Or2m13 (olfactory receptor family 2 subfamily M member 13) #1 | GFP, % of control = 92.7; viability (ATP), % of control = 104; outcome = inactive
Or2m13 (olfactory receptor family 2 subfamily M member 13) #2 | GFP, % of control = 74.8; viability (ATP), % of control = 67.7; outcome = inactive
Or2m13 (olfactory receptor family 2 subfamily M member 13) #3 | GFP, % of control = 71; viability (ATP), % of control = 98.4; outcome = inactive
